Test results taken from patent publication US6599713B1, “Method for quantitating leukocyte count in whole blood sample” (priority 1999, dated 2003).

System: white blood cells contained in a whole blood sample
Assay: MPO-releasing effects of various surfactants on whole blood, ELISA (Examples 3 to 5)
Format: cell-based, human
Conditions: 60 minutes on ice, mean ± SD
Description: 10 ml of healthy human whole blood was collected using a 28 G winged intravenous injection needle (manufactured and sold by Terumo Corporation, Japan), and immediately mixed with 10 mg of EDTA-2K (manufactured and sold by Dojin Laboratories, Japan), and the resultant EDTA-containing whole blood sample was subjected to the below-described various measurements within 1 hour from the blood collection.
500 μl of the blood was put in a 2-ml Eppendorf tube, and 500 μl of a 1% (w/v) aqueous surfactant solution was added to the tube, and the resultant mixture was stirred for 2 seconds by a Vortex mixer. Subsequently, the mixture was allowed to stand for 60 minutes on ice to thereby lyze the white blood cells. After the lysis of the white blood cells, 100 μl of the mixture was taken out and added to 900 μl of a PBS solution containing dissolved therein 1% BSA (trade name: “Sigma fraction V”, manufactured and sold under the brand of SIGMA™, U.S.A.). The resultant mixture was stirred by a Vortex mixer, and then 10 μl of the mixture was taken out and diluted 2,000-fold with 1% BSA/PBS solution. The resultant diluted mixture was subjected to a measurement by ELISA.
The outline of the ELISA is as follows. A 5 μg/ml PBS solution of an anti-MPO antibody was put into the wells of a Nunc Immuno Plate (manufactured and sold by Nalge Nunc International, Denmark) in an amount of 100 μl per well. The solution in each well was sealed and subjected to a reaction for 18 hours at 4° C. thereby immobilizing the primary antibody. The wells were washed with a washing solution (0.05% Tween™ 20/PBS) and then subjected to blocking for 1 hour at room temperature by using 200 μl of a blocking solution (1% BSA/PBS), and then washed twice with the washing solution. […] The wells were washed 5 times with a washing solution, and 100 μl of a just-prepared TMB solution (manufactured and sold by Kirkegaad & Perry Laboratories, U.S.A.) was added thereto to effect a color reaction. 2 Minutes after the start of the color reaction, 100 μl of a 1 N sulfuric acid solution (manufactured and sold by Nacalai Tesque, Inc., Japan) was added to the wells to thereby terminate the reaction. Then, the absorbance at 450 nm was measured by means of a plate reader (manufactured and sold by Bio-Rad Laboratories, U.S.A.).
With respect to the measurement of the MPO concentration of the sample, MPO (manufactured and sold by Elastin Products Co., INC., U.S.A.) was added to the sample so that the final concentration of the added MPO became 5 ng/ml or 10 ng/ml, and the resultant mixture was measured with respect to the MPO concentration. From the obtained value of MPO concentration, a calibration curve for each sample was obtained. […]

[1] = Example 4 (Table 4): 500 μl blood + 500 μl 1% (w/v) surfactant solution
[2] = Example 5 (Table 5): 500 μl blood + 500 μl 1% (w/v) surfactant solution

SMILES: CCCCCCCCCCCCCCCC[n+]1ccccc1.O.[Cl-] [HPC, Hexadecylpyridinium Chloride Monohydrate]
- MPO concentration of whole blood [1]: 12.05 ± 1.18 µg/mL
- MPO concentration of whole blood [2]: 10.60 ± 1.44 µg/mL

SMILES: CCCCCCCCCCCCCCCC[n+]1ccccc1.O.[Br-] [HPB, Hexadecylpyridinium Bromide Monohydrate]
- MPO concentration of whole blood [1]: 10.96 ± 0.46 µg/mL
- MPO concentration of whole blood [2]: 9.07 ± 1.14 µg/mL
